Values from PubChem BioAssay AID1259425 (University of Nebraska Medical Center, 2018)

Aim: 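Compare each knockdown with KSR1 silencing using changes in marker transcripts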 (primary screen)
Cells: HCT116 human colon cancer cells
Knock-down reagent: siRNA pool against human genes, 50 nM siRNA
Measurement: 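After 50 nM siRNA pool, branched-DNA assay measures six marker transcripts per well, minus blank, normalised to the geometric mean of two housekeeping transcripts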
Direction: BNIP3L mRNA: higher = more BNIP3L transcript after knockdown
This is an unselected part of about 14,000 deposited reagents. Reagents against one gene are numbered here. Not all columns of the deposit are shown. Not given: the time to read-out.

How did the screen score POM121L9P (POM121 transmembrane nucleoporin like 9, pseudogene)?
BNIP3L mRNA, set 1: 0.0692

Which result is listed for SMG6 (SMG6 nonsense mediated mRNA decay factor)?
BNIP3L mRNA, set 1: 0.0655

With SLITRK6 (SLIT and NTRK like family member 6), what was measured?
BNIP3L mRNA, set 1: 0.259

With FANCG (FA complementation group G), what was measured?
BNIP3L mRNA, set 1: 0.1

With ADARB2 (adenosine deaminase RNA specific B2 (inactive)), what does the deposit list?
BNIP3L mRNA, set 1: 0.13

For TDRD1 (tudor domain containing 1), what does the deposit list?
BNIP3L mRNA, set 1: 0.281

For PIAS4 (protein inhibitor of activated STAT 4), what does the deposit list?
BNIP3L mRNA, set 1: 0.0331

With ILK (integrin linked kinase) #1, how do the results read?
BNIP3L mRNA, set 1: 0.0623

How did the screen score ILK (integrin linked kinase) #2?
BNIP3L mRNA, set 1: 0.112

How did the screen score SLC16A7?
BNIP3L mRNA, set 1: 0.0912

What did the screen give for CATSPER1 (cation channel sperm associated 1)?
BNIP3L mRNA, set 1: 0.127

Which result is listed for SOX5 (SRY-box transcription factor 5)?
BNIP3L mRNA, set 1: 0.21
